PubChem BioAssay AID1259308 – NCATS, 2017

Assay: 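Knock-downs that increase output of a recombinant reporter protein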 (primary screen)
Cell system: human HEK293 embryonic kidney cells stably expressing firefly luciferase (HEK-CMV-Luc2-Hygro)
Reagents: single siRNA against human genes, 0.8 pmol siRNA per well
Duration: 72 h
Measured: 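Luciferase light (ONE-Glo) measured on one replicate plate set and viability (CellTiter-Glo) on the other, scaled to a negative control siRNA, with robust z-scores and luciferase per cell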
Scale: total luciferase, z-score and total luciferase, % of control: higher = more reporter protein produced; luciferase per cell, z-score: higher = more reporter output per viable cell; viable cells, % of control: higher = more viable cells
Call rule: 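Active when the median/MAD z-score for overall luciferase is greater than 3; a gene was taken forward for validation with new siRNAs if at least two of its three siRNAs passed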
Calls: active = raised luciferase; inactive = no rise
The deposit covers about 59,000 reagents; below is a random part of them. Of all reagents, about 1,510 (2.6%) are marked active. 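Calls use total luciferase alone and ignore viability, so some active siRNAs may act by altering cell number.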 Unmarked entries are inactive. Reagents against one gene are numbered here.

total luciferase, z-score	total luciferase, % of control	luciferase per cell, z-score	viable cells, % of control	target	reagent
3.04 (active)	142	3.67	60.6	GPR26	1
-0.122	79.5	-0.196	93.5	GPR26	2
1.45	111	1.45	84.4	GPR26	3
-0.687	68.2	-0.957	98.1	MCF2L2	1
-0.614	69.7	-0.905	98.8	MCF2L2	2
-0.0387	81.1	2.81	43.2	MCF2L2	3
1.01	102	0.75	93.6	TNNI3	1
-2.56	31	-2.3	63.5	TNNI3	2
-0.0115	81.7	-0.344	99.9	TNNI3	3
0.519	92.2	0.0855	101	CAMK2D	1
0.0349	82.6	-0.605	108	CAMK2D	2
0.597	93.8	1.01	80.4	CAMK2D	3
0.51	92	0.664	86.3	ALAS1	1
0.166	85.2	-0.718	115	ALAS1	2
-0.489	72.2	-1.48	119	ALAS1	3
0.593	93.7	0.388	94.5	LOC441167 (retired record)	1
0.455	90.9	-0.0687	103	LOC441167 (retired record)	2
-0.561	70.7	-1.35	113	LOC441167 (retired record)	3
0.872	99.2	0.932	86.8	ATP5ME	1
-0.312	75.7	0.511	73.9	ATP5ME	2
0.203	85.9	0.613	81.7	ATP5ME	3
-0.0559	80.8	0.408	81.1	KLHL15	1
-0.388	74.2	-0.227	88	KLHL15	2
-0.552	70.9	0.184	75.5	KLHL15	3
0.0205	82.3	0.0522	90.7	ATAD1	1
0.0985	83.8	0.3	86.6	ATAD1	2
-1.9	44.2	-2.15	86.9	ATAD1	3
-0.975	62.5	-1.48	103	EEF1E1	1
0.798	97.8	0.243	102	EEF1E1	2
-0.518	71.6	-0.84	99.8	EEF1E1	3
-0.218	77.5	-0.458	97.7	AHR	1
3.33 (active)	148	1.87	101	AHR	2
0.275	87.4	-0.351	107	AHR	3
0.924	100	0.852	89.5	PRR11	1
-0.317	75.6	0.00153	84.4	PRR11	2
-0.692	68.1	-0.598	89.1	PRR11	3
-0.0823	80.2	-0.337	98	CAND1	1
0.813	98.1	1.66	70.9	CAND1	2
-0.59	70.2	-0.462	88.5	CAND1	3
-0.421	73.5	-0.221	87.1	CCDC71	1
0.353	88.9	0.0264	98.7	CCDC71	2
-0.793	66.1	-0.145	76.7	CCDC71	3
0.504	91.9	-0.145	107	HSD17B8	1
-2.21	38	-0.58	49.5	HSD17B8	2
1.19	106	0.779	96.2	HSD17B8	3
2.05	123	1.73	86.9	MYT1L	1
0.184	85.6	0.0171	95.2	MYT1L	2
1.16	105	1.06	88.7	MYT1L	3
0.272	87.3	-0.106	100	TSPAN2	1
-0.304	75.8	0.422	75.8	TSPAN2	2
-0.808	65.8	0.172	70.3	TSPAN2	3
-1.88	44.5	-2.2	88.7	SNX12	1
0.367	89.2	-0.34	109	SNX12	2
-1.41	53.9	-1.33	85.4	SNX12	3
-0.183	78.2	0.598	74.7	ABHD2	1
0.502	91.9	0.445	91.3	ABHD2	2
0.862	99	1.03	84.3	ABHD2	3

Not a retest: 5 of the entries above.
total luciferase, z-score	total luciferase, % of control	luciferase per cell, z-score	viable cells, % of control	target	reagent
3.33 (active)	148	1.87	101	AHR	2
0.275	87.4	-0.351	107	AHR	3
0.924	100	0.852	89.5	PRR11	1
-0.317	75.6	0.00153	84.4	PRR11	2
-0.692	68.1	-0.598	89.1	PRR11	3
